The results in this text go back to patent EP4831176A1, “BICYCLIC FUSED HETEROAROMATIC RING DERIVATIVE, AND PHARMACEUTICAL COMPOSITION AND USE THEREOF” (dated 2026).

Sequences of proteins named here, by UniProt entry; tags and fusion partners are left off.
UniProt O75530, whole entry: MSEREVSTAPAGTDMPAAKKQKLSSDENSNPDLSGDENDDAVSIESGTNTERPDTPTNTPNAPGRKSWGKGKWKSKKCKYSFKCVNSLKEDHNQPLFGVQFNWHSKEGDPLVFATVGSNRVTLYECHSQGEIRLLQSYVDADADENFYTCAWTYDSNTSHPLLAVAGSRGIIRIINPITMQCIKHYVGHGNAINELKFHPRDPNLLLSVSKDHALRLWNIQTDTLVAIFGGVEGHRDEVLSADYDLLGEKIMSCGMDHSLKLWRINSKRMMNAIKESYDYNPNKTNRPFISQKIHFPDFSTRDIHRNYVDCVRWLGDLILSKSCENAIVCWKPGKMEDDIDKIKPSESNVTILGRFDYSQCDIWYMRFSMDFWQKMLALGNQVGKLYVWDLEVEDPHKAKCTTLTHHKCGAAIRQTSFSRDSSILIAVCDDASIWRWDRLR

Assay [1] deals with EED protein (Homo sapiens, UniProt O75530). The experiment in a line: EED protein degradation in Karpas-422 cells, In-cell western (ICW). Conditions: 18 hours incubation.
Assay [2] deals with Pfeiffer cells. The experiment in a line: Proliferation inhibition of Pfeiffer tumor cells, Cell Titer-Glo. Conditions: read-out: CTG IC50, 144 hours incubation.

The structures given here were assigned with low confidence; some may be wrong.

`Cn1c(=O)n(C2CCC(=O)NC2=O)c2ccc(N3CCC(CN4CCC(c5ccc(-c6cnc(NCc7c(F)ccc8c7CCO8)n7cc(C#N)nc67)cc5)CC4)CC3)cc21` (centres unmarked): in assay [1], the Dmax (as a rule, the greatest extent of degradation seen) turned out to be 55%. The IC50 (as a rule, the midpoint of a concentration-inhibition curve) in assay [2] is 200 pM.

Consider `Cn1c(=O)n(C2CCC(=O)NC2=O)c2ccc(N3CCC(CN4CCC(c5ccc(-c6cnc(NCc7c(F)ccc8c7CCO8)n7cnc(S(C)(=O)=O)c67)cc5)CC4)CC3)cc21` (centres unmarked), for which the Dmax in assay [1] was determined as 55%. Moreover, in assay [2], the IC50 is less than 100 pM.

In assay [1], `Cn1nc(C2CCC(=O)NC2=O)c2ccc(N3CCC(CN4CCC(c5ccc(-c6cnc(NCc7c(F)ccc8c7CCO8)n7cnc(P(C)(C)=O)c67)cc5)CC4)CC3)cc21` (centres unmarked) displayed a Dmax of 61%. In addition, the concentration for half-maximal inhibition (IC50) in assay [2] was 600 pM.

As to `Cn1nc(C2CCC(=O)NC2=O)c2ccc(N3CCC(CN4CCC(n5cc(-c6cnc(NCc7c(F)ccc8c7CCO8)n7cnc(Cl)c67)nn5)CC4)CC3)cc21` (centres unmarked), the greatest degradation seen (Dmax) in assay [1] stood at 69%. In assay [2], the IC50 worked out at 200 pM.

`Cc1nc(C2CCN(CC3CCN(c4ccc5c(C6CCC(=O)NC6=O)nn(C)c5c4)CC3)CC2)ccc1-c1cnc(NCc2c(F)ccc3c2CCO3)n2cnc(Cl)c12` (centres unmarked) displayed a maximal degradation (Dmax) in assay [1] of 63%. The half-maximal inhibitory concentration (IC50) in assay [2] turned out to be 500 pM.

As to `Cc1nc(C2CCN(CC3CCN(c4ccc5c(C6CCC(=O)NC6=O)nn(C)c5c4)CC3)CC2)ccc1-c1cnc(NCc2c(F)ccc3c2CCO3)n2cnc(F)c12` (centres unmarked), in assay [1], the Dmax is reported as 71%. Further, the IC50 in assay [2] came to 100 pM.

Compound `Cn1nc(C2CCC(=O)NC2=O)c2ccc(N3CCN(C4CCN(Cc5ncc(-c6cnc(NCc7c(F)ccc8c7CCO8)n7cnc(Cl)c67)cn5)CC4(F)F)CC3)cc21` (centres unmarked) showed a Dmax in assay [1] of 66%. Also, the IC50 in assay [2] was found to be 800 pM.

As for `Cn1nc(C2CCC(=O)NC2=O)c2cc(F)c(N3CCC(CN4CCC(c5ccc(-c6cnc(NCc7c(F)ccc8c7CCO8)n7cnc(Cl)c67)nn5)CC4)CC3)cc21` (centres unmarked), in assay [1], the maximal degradation (Dmax) came out at 66%. Further, in assay [2], the IC50 is less than 30 pM.

Regarding `Cn1nc(C2CCN(CC3CCN(c4cc5c(cc4F)c(C4CCC(=O)NC4=O)nn5C)CC3)CC2)cc1-c1cnc(NCc2c(F)ccc3c2CCO3)n2cnc(Cl)c12` (centres unmarked), the Dmax in assay [1] is 56%. Also, the half-inhibitory concentration (IC50) in assay [2] is less than 30 pM.

In assay [1], `Cc1nc(C(=O)NC2CCN(CC3CCN(c4ccc5c(C6CCC(=O)NC6=O)nn(C)c5c4)CC3)CC2)ccc1-c1cnc(NCc2c(F)ccc3c2CCO3)n2cnc(Cl)c12` (centres unmarked) yielded a maximal degradation (Dmax) of 63%. The IC50 in assay [2] stood at 1300 pM.

For `Cc1nc(CCC(=O)NCCOc2ccc(OCC(=O)N[C@H](C(=O)N3C[C@H](O)C[C@H]3C(=O)NCc3ccc(-c4scnc4C)cc3)C(C)(C)C)cc2)ccc1-c1cnc(NCc2c(F)ccc3c2CCO3)n2cnnc12`, in assay [1], the Dmax worked out at 76%. Besides, the IC50 in assay [2] came out at 391000 pM.

Turning to `Cc1nc(-c2cnc(NCc3c(F)ccc4c3CCO4)n3cnc(Cl)c23)ccc1C1CCN(CC2CCN(c3ccc4c(C5CCC(=O)NC5=O)nn(C)c4c3)CC2)CC1` (centres unmarked), the maximal degradation (Dmax) in assay [1] is on record as 67%. Besides, the IC50 in assay [2] was found to be 200 pM.

On to `Cn1c(=O)n(C2CCC(=O)NC2=O)c2ccc(N3CCC(CN4CCC(c5ccc(-c6cnc(NCc7c(F)ccc8c7CCO8)n7cnc(Cl)c67)cc5)CC4)CC3)cc21` (centres unmarked), for which the greatest degradation seen (Dmax) in assay [1] turned out to be 59%. Further, the IC50 in assay [2] stood at 800 pM.
